From paper doi:10.1101/2024.01.24.576984 (bioRxiv, 2024)
These are yes or no findings as the source states them, for the method shown. Binding seen in cells or lysates may run through a third protein. Some binding calls cover weakened binding; strength is not graded here. For part of these data: Sequences can lack the tags named with a protein.

By UniProt entry, the sequences of proteins in these tests, tags left out.
UniProt P51858: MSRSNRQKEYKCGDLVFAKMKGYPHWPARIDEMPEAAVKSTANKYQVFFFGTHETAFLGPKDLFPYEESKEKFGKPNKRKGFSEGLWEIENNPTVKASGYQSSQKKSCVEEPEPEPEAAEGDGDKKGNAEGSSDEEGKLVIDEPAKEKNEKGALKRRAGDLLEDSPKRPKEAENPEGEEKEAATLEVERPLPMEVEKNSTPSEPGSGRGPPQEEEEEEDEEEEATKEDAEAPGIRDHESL
UniProt Q9ULG1: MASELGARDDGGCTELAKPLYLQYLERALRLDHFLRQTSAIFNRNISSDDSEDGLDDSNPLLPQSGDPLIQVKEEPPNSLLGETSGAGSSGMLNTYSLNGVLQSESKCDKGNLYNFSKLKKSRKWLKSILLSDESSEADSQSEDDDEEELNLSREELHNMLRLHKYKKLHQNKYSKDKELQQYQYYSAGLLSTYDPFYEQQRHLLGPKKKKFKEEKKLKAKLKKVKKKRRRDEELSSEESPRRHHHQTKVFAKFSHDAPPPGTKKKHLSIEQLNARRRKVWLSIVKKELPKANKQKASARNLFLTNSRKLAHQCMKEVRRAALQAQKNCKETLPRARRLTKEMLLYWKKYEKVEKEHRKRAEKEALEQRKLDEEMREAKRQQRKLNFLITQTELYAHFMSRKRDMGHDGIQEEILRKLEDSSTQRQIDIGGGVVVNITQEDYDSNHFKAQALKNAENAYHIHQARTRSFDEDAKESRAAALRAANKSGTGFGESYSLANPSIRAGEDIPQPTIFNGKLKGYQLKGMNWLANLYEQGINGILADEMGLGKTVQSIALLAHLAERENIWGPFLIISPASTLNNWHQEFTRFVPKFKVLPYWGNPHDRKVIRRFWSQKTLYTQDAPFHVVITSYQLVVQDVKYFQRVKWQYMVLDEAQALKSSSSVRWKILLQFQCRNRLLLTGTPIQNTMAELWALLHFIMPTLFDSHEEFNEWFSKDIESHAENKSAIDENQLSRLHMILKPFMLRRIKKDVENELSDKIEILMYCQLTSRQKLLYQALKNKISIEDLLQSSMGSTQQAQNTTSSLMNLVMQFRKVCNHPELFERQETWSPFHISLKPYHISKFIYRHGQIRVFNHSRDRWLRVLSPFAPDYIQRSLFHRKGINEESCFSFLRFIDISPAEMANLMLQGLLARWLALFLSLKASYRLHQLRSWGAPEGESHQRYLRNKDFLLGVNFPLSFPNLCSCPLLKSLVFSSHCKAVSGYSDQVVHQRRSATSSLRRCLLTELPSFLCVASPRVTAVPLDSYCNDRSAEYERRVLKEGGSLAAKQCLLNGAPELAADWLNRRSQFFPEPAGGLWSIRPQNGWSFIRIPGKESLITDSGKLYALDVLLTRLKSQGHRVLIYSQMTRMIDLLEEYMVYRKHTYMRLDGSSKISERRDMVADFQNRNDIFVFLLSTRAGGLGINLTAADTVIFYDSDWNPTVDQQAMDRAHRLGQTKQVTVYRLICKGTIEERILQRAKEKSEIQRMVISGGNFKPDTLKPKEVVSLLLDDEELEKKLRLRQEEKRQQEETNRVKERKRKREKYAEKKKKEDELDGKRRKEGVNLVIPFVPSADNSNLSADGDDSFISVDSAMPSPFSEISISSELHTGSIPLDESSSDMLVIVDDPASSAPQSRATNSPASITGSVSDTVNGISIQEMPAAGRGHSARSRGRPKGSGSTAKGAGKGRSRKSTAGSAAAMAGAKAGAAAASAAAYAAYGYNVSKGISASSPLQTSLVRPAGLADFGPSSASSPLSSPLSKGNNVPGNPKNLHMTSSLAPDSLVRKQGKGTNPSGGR
UniProt Q9ULD9: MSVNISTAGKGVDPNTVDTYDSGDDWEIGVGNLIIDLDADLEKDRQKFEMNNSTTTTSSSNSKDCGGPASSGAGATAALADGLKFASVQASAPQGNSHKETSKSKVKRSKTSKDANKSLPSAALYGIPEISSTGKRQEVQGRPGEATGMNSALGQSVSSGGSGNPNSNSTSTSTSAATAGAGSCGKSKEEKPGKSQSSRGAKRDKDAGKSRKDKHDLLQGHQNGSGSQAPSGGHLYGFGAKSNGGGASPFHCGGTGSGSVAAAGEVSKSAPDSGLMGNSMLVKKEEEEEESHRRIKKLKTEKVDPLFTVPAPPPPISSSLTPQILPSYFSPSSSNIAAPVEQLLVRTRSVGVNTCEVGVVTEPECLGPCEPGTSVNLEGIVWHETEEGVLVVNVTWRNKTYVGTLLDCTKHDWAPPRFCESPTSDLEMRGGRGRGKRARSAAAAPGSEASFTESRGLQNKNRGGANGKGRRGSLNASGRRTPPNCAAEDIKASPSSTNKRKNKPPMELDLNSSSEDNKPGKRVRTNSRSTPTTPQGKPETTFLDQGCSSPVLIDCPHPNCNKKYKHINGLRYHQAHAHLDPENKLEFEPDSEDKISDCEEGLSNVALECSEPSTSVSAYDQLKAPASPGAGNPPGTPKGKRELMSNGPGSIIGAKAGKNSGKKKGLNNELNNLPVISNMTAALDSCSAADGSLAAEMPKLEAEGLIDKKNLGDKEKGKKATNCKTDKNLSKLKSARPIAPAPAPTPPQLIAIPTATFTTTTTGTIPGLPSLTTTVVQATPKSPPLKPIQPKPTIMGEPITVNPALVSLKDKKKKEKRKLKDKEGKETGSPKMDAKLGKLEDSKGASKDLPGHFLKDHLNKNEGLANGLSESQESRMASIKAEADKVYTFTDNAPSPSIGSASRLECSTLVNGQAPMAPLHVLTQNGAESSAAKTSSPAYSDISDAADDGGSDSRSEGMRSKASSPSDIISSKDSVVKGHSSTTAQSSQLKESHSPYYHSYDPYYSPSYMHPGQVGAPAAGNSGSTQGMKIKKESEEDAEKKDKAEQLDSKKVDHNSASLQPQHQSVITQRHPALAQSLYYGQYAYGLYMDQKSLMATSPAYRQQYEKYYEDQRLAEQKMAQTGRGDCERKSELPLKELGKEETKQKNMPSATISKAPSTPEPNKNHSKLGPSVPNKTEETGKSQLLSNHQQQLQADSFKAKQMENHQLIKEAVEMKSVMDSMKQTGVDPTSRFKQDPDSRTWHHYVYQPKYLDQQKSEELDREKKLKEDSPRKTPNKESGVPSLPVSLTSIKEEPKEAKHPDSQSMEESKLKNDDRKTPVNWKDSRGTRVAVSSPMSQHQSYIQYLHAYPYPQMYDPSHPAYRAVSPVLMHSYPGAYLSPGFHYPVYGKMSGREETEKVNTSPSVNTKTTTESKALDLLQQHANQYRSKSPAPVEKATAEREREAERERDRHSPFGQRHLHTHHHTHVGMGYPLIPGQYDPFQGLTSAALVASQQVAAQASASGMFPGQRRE
UniProt Q9NVM9: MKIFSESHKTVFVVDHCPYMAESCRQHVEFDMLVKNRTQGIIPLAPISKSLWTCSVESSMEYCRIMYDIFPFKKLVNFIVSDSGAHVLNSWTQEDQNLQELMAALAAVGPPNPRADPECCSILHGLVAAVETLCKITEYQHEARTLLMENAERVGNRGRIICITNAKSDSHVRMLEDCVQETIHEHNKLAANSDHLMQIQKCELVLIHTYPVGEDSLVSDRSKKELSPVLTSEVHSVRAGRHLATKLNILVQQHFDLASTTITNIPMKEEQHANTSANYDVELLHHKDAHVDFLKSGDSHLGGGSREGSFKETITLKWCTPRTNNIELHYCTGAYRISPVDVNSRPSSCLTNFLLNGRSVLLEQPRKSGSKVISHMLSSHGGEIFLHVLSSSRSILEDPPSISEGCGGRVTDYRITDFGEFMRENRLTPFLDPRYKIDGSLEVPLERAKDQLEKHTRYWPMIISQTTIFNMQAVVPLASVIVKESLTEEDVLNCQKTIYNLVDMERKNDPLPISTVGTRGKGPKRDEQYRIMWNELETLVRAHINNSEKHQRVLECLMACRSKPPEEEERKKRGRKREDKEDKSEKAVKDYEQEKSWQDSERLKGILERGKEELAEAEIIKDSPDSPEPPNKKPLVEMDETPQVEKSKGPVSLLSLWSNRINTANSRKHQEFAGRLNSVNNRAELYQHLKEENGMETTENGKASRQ

What was measured:
Test in all cases: co-IP
[1] = target: V5-SBP-HDGF (human) (UniProt P51858)
[2] = target: INO80 (transfected, affinity purified) (human) (UniProt Q9ULG1)
[3] = target: T1, V5-SBP-ZMYND8 (human) (UniProt Q9ULU4)
T1 sequence: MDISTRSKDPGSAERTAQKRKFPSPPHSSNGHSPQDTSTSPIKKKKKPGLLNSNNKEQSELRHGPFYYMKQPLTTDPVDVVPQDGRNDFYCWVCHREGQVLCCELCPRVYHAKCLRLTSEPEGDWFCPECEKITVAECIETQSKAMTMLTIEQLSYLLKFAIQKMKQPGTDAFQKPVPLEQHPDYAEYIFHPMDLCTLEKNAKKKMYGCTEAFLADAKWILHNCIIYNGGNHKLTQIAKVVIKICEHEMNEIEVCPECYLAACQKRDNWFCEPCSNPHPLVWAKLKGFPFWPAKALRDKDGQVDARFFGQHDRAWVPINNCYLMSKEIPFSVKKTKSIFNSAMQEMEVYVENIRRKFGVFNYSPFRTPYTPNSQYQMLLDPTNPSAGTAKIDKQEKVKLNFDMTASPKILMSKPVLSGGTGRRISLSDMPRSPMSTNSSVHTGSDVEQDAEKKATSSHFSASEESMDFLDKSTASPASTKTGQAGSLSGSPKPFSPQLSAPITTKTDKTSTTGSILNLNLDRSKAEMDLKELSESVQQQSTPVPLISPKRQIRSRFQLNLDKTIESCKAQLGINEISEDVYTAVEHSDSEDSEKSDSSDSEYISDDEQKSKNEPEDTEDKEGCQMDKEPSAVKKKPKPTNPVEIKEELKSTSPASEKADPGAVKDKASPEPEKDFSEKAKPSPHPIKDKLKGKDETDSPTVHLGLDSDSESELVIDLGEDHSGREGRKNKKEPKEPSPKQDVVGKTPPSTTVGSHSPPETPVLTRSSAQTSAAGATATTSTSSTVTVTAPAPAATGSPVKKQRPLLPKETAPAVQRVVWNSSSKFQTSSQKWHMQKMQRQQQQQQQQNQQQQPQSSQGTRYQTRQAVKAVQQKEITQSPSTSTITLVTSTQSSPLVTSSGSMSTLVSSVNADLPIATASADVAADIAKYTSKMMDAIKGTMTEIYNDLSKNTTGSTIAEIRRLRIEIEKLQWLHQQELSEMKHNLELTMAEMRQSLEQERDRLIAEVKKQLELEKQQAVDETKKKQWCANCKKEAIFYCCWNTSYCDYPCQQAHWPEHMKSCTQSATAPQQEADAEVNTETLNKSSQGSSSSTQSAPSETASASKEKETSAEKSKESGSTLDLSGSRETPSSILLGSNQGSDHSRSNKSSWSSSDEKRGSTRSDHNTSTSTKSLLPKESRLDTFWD

[4] = target: V5-SBP-ZNF608 (human) (UniProt Q9ULD9)
[5] = target: T2, V5-SBP-ZEB1 (human) (UniProt P37275)
T2 sequence: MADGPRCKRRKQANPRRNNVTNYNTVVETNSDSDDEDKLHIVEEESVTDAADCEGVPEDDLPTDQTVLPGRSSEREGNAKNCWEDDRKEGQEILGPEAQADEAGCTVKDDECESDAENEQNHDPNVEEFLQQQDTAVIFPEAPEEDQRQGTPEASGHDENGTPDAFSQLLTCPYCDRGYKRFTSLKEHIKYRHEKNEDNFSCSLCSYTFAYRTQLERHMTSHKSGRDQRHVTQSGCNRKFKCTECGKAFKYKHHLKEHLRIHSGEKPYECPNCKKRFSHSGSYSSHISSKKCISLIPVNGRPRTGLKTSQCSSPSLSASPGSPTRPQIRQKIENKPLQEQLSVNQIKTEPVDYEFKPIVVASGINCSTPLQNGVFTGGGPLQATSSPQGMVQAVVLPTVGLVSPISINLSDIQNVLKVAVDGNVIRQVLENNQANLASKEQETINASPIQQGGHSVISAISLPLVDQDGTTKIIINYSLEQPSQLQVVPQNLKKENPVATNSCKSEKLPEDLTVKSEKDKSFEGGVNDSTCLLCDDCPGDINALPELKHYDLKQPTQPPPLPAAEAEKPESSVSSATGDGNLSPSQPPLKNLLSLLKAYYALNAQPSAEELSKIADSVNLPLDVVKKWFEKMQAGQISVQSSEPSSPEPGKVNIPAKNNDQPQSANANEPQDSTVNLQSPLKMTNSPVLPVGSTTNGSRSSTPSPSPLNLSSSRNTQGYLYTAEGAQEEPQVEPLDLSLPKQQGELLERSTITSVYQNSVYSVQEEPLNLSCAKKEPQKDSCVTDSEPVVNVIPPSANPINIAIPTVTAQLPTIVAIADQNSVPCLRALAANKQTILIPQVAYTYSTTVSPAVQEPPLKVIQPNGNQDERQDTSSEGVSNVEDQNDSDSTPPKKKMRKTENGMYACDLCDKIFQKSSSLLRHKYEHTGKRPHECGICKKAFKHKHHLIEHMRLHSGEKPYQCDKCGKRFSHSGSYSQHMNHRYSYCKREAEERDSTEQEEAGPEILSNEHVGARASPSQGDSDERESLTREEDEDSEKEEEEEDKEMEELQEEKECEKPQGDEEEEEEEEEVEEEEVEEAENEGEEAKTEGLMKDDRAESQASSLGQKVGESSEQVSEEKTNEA

[6] = target: T3, V5-SBP-ZNF655 (human) (UniProt Q8N720)
T3 sequence: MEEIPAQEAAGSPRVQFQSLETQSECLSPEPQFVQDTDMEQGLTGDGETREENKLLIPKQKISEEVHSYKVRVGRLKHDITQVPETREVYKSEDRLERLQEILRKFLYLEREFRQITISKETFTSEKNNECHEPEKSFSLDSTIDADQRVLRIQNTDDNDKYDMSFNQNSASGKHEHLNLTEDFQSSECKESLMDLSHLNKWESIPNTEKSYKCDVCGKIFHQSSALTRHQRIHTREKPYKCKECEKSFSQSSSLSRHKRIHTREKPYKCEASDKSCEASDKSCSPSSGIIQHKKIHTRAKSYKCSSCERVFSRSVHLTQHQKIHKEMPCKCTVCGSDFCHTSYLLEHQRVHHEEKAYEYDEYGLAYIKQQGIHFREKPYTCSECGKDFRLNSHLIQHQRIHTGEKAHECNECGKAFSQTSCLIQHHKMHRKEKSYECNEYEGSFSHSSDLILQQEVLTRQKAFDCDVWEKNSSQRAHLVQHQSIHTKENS

Measured: binding

INTS13 (from UniProt Q9NVM9 1-706)
binds: [1] | [2] | [3] | [4] | [5] | [6]
